Source: PubChem BioAssay AID1688 (National Center for Advancing Translational Sciences (NCATS), 2009)
The campaign covered roughly 220,000 compounds. About 2,400 (1.1%) were called active. The shares of active, inactive and inconclusive entries below differ from those in the screen. Calls come from the whole dose curve; as a rule, active = well fitted inhibition curve with a large enough effect; inconclusive = small, poorly fitted or top-dose-only effect, or effect the other way; inactive = no such curve, though single readings can be large or run the other way. Potencies of inconclusive entries are doubtful fits and often do not repeat.

Assay: qHTS Multiplex Assay to Identify Dual Action Probes in a Cell Model of Huntington: Aggregate Formation (GFP); note: nearly all actives have a fitted effect of over 60% in size
Details: PC12 HttQ103-GFP aggregates, Acumen cytometry, 40 h; activity change, negative = inhibition: at 46.1 µM (top of the series) unless noted
Outline: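 Huntingtin Q103 exon 1–GFP aggregates in induced PC12 cells (100 nM tebufenozide) were quantified by cytometry from lysates, with compounds dosed in titration.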
% is set by controls: 0 for no effect and ±100 for the full control effect; potency is the fitted concentration of half-maximal effect.

| Compound | activity change, negative = inhibition | Potency |
| --- | --- | --- |
| c1ccc2cc(CNCc3cccc4ccccc34)ccc2c1 | inactive: 18.4% [at 9.22 µM] |  |
| Cc1cccc(C)c1N1CCN(S(=O)(=O)N2CCCCC2)CC1 |  | inconclusive: 35.5 µM [inhibitor, single point] |
| COc1ccc([N+](=O)[O-])cc1NC(=O)Cc1noc2ccc(C)cc12 |  | inconclusive: 12.6 µM [inhibitor, partial curve] |
| O=C(CNC(=O)c1ccc2c(c1)OCO2)N/N=C(Br)/C=C/c1ccccc1 |  | inactive |
| N#C/C(=N\Nc1ccccc1Cl)C(=O)c1ccccc1 |  | inconclusive: 14.1 µM [inhibitor, single point] |
| COc1ccc(OC)c(C2=C/C(=C/c3ccccn3)C(=O)O2)c1 |  | inactive |
| S=C(NCCc1ccccc1)N1CCCCC1 |  | inconclusive: 5.62 µM [inhibitor, single point] |
| Cn1c(Sc2ccc(Cl)cc2)c(C=O)c2ccccc21 |  | active: 7.94 µM |
| CC(C)Cn1c(SC(C)C(=O)Nc2ccc3c(c2)OCCO3)nc2ccccc2c1=O (centres undefined) |  | inactive |
| O=C(CSc1ccc(-c2ccco2)nn1)c1ccc(F)cc1 |  | inconclusive: 35.5 µM [activator, single point] |
| COc1ccccc1/C=N/NC(=O)c1ccccc1NS(=O)(=O)c1ccc(C)cc1 |  | inconclusive: 25.1 µM [inhibitor, single point] |
| CCS(=O)(=O)c1ccc2oc(SCC(=O)NCCC3=CCCCC3)nc2c1 |  | inconclusive: 10 µM [inhibitor, partial curve, poor fit] |
| COc1ccc(N2CCN(C(=O)C(C)(C)Oc3ccc(Cl)cc3)CC2)cc1 |  | inconclusive: 35.5 µM [inhibitor, single point] |
| CC(C)OC(=O)c1cc(NC(=O)C2C3CCC(O3)C2C(=O)O)cc(C(=O)OC(C)C)c1 (centres undefined) |  | inconclusive: 10 µM [inhibitor, partial curve] |
| COc1nccnc1NS(=O)(=O)c1ccc(N=Cc2c(C)[nH]n(-c3ccc(Cl)cc3)c2=O)cc1 |  | inconclusive: 316 µM [inhibitor, partial curve, poor fit] |
| C=CCNc1ncnc2c1[nH]c1ccccc12 |  | inconclusive: 28.2 µM [inhibitor, partial curve] |
| COc1ccc(Nc2nc(N3CCCC3)c3ccccc3n2)cc1 |  | inconclusive: 28.2 µM [inhibitor, single point] |
| CC1=CC(C)(C)n2c(O)c(N=NC(N)=S)c3c(C)ccc1c32 |  | inconclusive: 7.08 µM [activator, full curve, poor fit] |
| Cc1cccc(OCC(=O)Nc2cccc(O)c2)c1 |  | inactive |
| Cc1nc2ccc(NC(=O)c3cc([N+](=O)[O-])cc([N+](=O)[O-])c3Cl)cc2s1 |  | inconclusive: 2.82 µM [inhibitor, single point] |
| Nc1nc(-c2ccccc2)nn1S(=O)(=O)c1ccccc1 |  | inconclusive: 3.16 µM [activator, partial curve] |
| N=c1n(CCN2CCCCC2)c2ccccc2n1CC(O)c1ccc(Cl)c(Cl)c1 (centres undefined) |  | inconclusive: 35.5 µM [inhibitor, single point] |

| Compound | activity change, negative = inhibition | Potency |
| --- | --- | --- |
| Cc1cc(C)c2nc3nc(C)cc(C)c3c(N)c2c1 |  | inconclusive: 891 µM [inhibitor, partial curve, poor fit] |
| O=C(NCc1ccco1)c1cccc(Nc2nc3ccc(Br)cc3[nH]2)c1 |  | inconclusive: 35.5 µM [inhibitor, single point] |
| COc1ccc(C(O)c2nc3ccccc3n2C)cc1OC (centres undefined) |  | inconclusive: 7.08 µM [inhibitor, partial curve] |
| O=C(c1ccccc1)c1ccc(N2CCOCC2)c(F)c1 |  | inactive |
| CCCC(=O)N1CCN(c2ccc([N+](=O)[O-])c(NC(C)c3ccccc3)c2)CC1 (centres undefined) |  | inconclusive: 15.8 µM [inhibitor, partial curve] |
| COc1ccc(CC(=O)Nc2ccc3c(c2)CCC3)cc1S(=O)(=O)N1CCOCC1 |  | inconclusive: 0.112 µM [activator, partial curve, poor fit] |
| CCCN(CCC)C1=CC(=[N+]2CCCC2)CC(C)(C)C1 |  | active: 11.2 µM |
| Cc1cccc(NC(=O)c2cc(NC(=O)C3CCCCC3C(=O)O)ccc2Cl)n1 (centres undefined) |  | inactive |
| Nc1ccc(C(=O)N2CCCC2)cc1CS(=O)(=O)c1ccc(Cl)cc1 |  | inactive |
| O=c1[nH]cnc2sc3c(c12)CCN(Cc1ccccc1)C3 |  | inconclusive: 12.6 µM [inhibitor, single point] |
| O=C(C1CCCN(S(=O)(=O)c2ccc(F)cc2)C1)N1CCCC1 (centres undefined) |  | inactive |
| CN(C)S(=O)(=O)N(CC(=O)Nc1ccc(F)c(F)c1)c1ccccc1 |  | inconclusive: 0.631 µM [inhibitor, full curve] |
| CC1(C)NC(=O)N(CC(O)CNC23CC4CC(CC(C4)C2)C3)C1=O (centres undefined) |  | inconclusive: 2 µM [activator, partial curve] |
| COc1cccc(NC(=O)N2CCCC2)c1 |  | inconclusive: 0.562 µM [activator, full curve, poor fit] |
| CC(=O)Nc1ccc(S(=O)(=O)C(C#N)c2nc3ccccc3nc2NCCO)cc1 (centres undefined) | inactive: -29.2% [at 9.22 µM] |  |
| CC(C)(C)NC(=O)CON=C1c2ccccc2-c2ccccc21 |  | inconclusive: 35.5 µM [inhibitor, single point] |
| O=C(Nc1ccc2c(c1)OCO2)C1CCCN(c2nc3ccccc3s2)C1 (centres undefined) |  | inconclusive: 35.5 µM [activator, single point] |
| O=C(CCN1C(=O)C2C3CCC(C3)C2C1=O)Nc1ccc(Br)cc1 (centres undefined) |  | inactive |
| COC(=O)/C=C1/N/C(=N\c2nc(C)cc(C)n2)N(c2ccccc2)C1=O |  | inconclusive: 15.8 µM [activator, single point] |
| COc1ccc(S(=O)(=O)n2nc(-c3ccc(Cl)cc3)cc2N)cc1OC |  | inconclusive: 22.4 µM [inhibitor, single point] |
| CN(Cc1ccco1)C(=O)C(Cc1ccccc1)NS(=O)(=O)c1ccc2c(c1)CCC(=O)N2 (centres undefined) |  | inactive |
| O=C(CCCc1nc2ccccc2s1)NCc1ccc(F)cc1 |  | inconclusive: 0.112 µM [inhibitor, partial curve, poor fit] |

Fetched by compound from the entries so far, four records:

| Compound | activity change, negative = inhibition | Potency |
| --- | --- | --- |
| O=C(NCc1ccco1)c1cccc(Nc2nc3ccc(Br)cc3[nH]2)c1 |  | inconclusive: 35.5 µM [inhibitor, single point] |
| COc1cccc(NC(=O)N2CCCC2)c1 |  | inconclusive: 0.562 µM [activator, full curve, poor fit] |
| Cc1cccc(NC(=O)c2cc(NC(=O)C3CCCCC3C(=O)O)ccc2Cl)n1 (centres undefined) |  | inactive |
| O=C(Nc1ccc2c(c1)OCO2)C1CCCN(c2nc3ccccc3s2)C1 (centres undefined) |  | inconclusive: 35.5 µM [activator, single point] |
